Laboratory results from PMC8548262.
These are yes or no findings as the source states them, for the method shown. Binding seen in cells or lysates may run through a third protein. Here binding means that the protein was enriched with, or labelled near, the bait; the list need not be complete.

Amino acid sequences for entries named in this document (tags omitted).
UniProt Q86XN7: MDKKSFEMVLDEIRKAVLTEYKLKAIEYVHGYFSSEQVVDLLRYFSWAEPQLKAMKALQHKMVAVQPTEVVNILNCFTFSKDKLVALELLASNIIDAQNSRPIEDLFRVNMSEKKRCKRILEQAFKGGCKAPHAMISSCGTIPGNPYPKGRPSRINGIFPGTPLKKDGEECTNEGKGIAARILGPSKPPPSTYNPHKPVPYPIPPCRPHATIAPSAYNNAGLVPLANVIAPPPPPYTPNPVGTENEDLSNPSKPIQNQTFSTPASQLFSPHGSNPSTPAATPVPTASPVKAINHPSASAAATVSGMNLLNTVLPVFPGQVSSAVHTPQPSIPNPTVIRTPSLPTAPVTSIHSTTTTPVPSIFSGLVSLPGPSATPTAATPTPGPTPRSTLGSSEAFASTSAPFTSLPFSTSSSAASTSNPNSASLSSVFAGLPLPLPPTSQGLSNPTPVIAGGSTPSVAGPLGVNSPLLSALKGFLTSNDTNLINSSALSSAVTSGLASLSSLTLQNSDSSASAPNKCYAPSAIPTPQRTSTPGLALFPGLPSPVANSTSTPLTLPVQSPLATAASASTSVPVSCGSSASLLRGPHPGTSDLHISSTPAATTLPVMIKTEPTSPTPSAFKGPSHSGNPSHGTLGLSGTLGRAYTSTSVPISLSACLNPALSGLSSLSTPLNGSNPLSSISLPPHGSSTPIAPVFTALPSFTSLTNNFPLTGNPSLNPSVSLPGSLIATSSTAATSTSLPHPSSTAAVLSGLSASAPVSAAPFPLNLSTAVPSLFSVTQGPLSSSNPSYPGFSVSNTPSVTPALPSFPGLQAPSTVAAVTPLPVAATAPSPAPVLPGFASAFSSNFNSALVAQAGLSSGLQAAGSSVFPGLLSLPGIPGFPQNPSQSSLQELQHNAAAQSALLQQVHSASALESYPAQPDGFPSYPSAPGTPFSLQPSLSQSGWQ
UniProt O15550: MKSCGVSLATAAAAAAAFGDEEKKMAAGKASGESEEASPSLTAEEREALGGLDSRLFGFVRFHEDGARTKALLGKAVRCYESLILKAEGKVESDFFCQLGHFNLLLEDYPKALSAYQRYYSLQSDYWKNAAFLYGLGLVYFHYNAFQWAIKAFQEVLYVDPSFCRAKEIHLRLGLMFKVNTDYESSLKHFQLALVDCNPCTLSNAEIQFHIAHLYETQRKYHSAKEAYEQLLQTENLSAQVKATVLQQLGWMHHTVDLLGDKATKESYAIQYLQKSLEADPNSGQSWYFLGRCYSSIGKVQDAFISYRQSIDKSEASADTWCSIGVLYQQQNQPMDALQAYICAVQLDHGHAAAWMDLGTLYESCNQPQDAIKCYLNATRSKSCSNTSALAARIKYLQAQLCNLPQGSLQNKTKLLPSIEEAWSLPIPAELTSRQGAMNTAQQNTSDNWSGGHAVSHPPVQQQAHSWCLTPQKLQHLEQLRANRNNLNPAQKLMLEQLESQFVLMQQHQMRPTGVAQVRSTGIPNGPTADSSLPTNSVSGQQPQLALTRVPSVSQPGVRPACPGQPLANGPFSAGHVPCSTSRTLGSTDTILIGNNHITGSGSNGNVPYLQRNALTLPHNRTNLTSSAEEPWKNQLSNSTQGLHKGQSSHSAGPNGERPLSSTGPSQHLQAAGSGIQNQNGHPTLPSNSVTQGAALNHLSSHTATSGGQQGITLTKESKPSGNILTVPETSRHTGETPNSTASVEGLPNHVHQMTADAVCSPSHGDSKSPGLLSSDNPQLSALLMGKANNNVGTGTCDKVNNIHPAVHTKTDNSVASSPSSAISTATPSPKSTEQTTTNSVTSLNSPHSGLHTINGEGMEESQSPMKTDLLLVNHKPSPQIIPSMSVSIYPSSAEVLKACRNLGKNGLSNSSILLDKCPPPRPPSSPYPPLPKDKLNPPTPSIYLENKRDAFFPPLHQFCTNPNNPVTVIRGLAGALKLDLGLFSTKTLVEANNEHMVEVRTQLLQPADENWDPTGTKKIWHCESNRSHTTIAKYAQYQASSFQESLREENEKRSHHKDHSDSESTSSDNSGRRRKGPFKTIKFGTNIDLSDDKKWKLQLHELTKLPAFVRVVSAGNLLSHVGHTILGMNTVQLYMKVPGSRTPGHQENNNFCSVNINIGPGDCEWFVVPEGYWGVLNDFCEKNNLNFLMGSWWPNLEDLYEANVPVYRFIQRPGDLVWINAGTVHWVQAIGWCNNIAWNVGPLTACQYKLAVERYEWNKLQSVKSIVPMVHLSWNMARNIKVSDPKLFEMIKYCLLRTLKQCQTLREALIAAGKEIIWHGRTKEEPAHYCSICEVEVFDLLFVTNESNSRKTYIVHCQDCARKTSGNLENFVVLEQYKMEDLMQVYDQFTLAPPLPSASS
UniProt O43151: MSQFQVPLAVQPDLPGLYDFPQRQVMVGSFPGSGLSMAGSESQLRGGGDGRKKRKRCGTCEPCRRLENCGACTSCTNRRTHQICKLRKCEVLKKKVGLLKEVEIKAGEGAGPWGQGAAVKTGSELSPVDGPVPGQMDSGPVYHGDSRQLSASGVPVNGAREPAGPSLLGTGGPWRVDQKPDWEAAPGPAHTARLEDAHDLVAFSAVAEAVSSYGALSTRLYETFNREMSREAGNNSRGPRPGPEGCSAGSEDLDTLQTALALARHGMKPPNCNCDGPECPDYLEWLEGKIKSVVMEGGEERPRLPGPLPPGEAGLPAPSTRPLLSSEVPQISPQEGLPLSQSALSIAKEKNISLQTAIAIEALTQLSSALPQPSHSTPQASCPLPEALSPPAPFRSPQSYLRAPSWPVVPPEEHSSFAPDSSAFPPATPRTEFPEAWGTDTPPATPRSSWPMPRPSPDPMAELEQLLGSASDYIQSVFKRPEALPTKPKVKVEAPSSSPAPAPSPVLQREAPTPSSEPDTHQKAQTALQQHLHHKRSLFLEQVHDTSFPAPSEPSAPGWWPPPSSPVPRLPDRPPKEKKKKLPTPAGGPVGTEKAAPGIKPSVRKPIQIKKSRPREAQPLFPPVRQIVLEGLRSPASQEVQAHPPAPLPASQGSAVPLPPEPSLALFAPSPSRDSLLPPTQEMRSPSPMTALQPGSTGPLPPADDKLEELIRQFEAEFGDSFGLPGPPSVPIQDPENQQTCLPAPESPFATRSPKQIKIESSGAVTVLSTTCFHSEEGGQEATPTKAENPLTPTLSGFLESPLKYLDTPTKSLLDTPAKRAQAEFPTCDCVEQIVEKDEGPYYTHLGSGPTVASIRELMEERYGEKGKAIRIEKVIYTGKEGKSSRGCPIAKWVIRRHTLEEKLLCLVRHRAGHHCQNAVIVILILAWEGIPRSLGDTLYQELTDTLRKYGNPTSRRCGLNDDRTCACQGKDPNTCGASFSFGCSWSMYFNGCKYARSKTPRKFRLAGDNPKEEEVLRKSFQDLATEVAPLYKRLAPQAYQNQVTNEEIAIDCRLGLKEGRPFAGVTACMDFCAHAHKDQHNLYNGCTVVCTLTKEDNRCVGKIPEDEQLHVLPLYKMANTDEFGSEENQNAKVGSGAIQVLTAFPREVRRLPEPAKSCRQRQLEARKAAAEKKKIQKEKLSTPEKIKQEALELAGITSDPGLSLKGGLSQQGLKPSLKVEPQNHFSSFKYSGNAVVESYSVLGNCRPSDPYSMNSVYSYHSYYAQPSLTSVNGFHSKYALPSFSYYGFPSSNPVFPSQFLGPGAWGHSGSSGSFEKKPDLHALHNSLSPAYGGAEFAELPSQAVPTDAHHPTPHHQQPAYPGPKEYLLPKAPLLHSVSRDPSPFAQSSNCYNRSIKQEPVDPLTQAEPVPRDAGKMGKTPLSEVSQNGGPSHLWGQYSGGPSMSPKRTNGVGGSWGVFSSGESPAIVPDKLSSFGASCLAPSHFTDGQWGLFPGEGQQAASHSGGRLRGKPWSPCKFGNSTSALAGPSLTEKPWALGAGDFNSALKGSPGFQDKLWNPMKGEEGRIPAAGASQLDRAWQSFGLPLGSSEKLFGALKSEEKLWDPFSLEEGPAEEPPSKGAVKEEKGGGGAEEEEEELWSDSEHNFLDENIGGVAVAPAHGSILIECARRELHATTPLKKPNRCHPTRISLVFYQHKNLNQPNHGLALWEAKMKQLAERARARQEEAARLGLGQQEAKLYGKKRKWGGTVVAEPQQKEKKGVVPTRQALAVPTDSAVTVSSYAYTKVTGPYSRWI

How the values were obtained:
[1] = molecular target: FLAG-PROSER1 (UniProt Q86XN7); experiment: affinity purification with mass spectrometry; overexpressed FLAG-PROSER1 purified by FLAG IP from HEK293 cells, mass spectrometry
[2] = molecular target: FLAG-UTX (UniProt O15550); experiment: affinity purification with mass spectrometry; FLAG-UTX purified by FLAG IP from HEK293 cells, mass spectrometry of the eluate

Molecule: TET3 (from UniProt O43151 1-1795)
- binding [1]: binds

B1: OGT (enzyme, UniProt O15294 1-1046)
chain: MASSVGNVADSTEPTKRMLSFQGLAELAHREYQAGDFEAAERHCMQLWRQEPDNTGVLLLLSSIHFQCRRLDRSAHFSTLAIKQNPLLAEAYSNLGNVYKERGQLQEAIEHYRHALRLKPDFIDGYINLAAALVAAGDMEGAVQAYVSALQYNPDLYCVRSDLGNLLKALGRLEEAKACYLKAIETQPNFAVAWSNLGCVFNAQGEIWLAIHHFEKAVTLDPNFLDAYINLGNVLKEARIFDRAVAAYLRALSLSPNHAVVHGNLACVYYEQGLIDLAIDTYRRAIELQPHFPDAYCNLANALKEKGSVAEAEDCYNTALRLCPTHADSLNNLANIKREQGNIEEAVRLYRKALEVFPEFAAAHSNLASVLQQQGKLQEALMHYKEAIRISPTFADAYSNMGNTLKEMQDVQGALQCYTRAIQINPAFADAHSNLASIHKDSGNIPEAIASYRTALKLKPDFPDAYCNLAHCLQIVCDWTDYDERMKKLVSIVADQLEKNRLPSVHPHHSMLYPLSHGFRKAIAERHGNLCLDKINVLHKPPYEHPKDLKLSDGRLRVGYVSSDFGNHPTSHLMQSIPGMHNPDKFEVFCYALSPDDGTNFRVKVMAEANHFIDLSQIPCNGKAADRIHQDGIHILVNMNGYTKGARNELFALRPAPIQAMWLGYPGTSGALFMDYIITDQETSPAEVAEQYSEKLAYMPHTFFIGDHANMFPHLKKKAVIDFKSNGHIYDNRIVLNGIDLKAFLDSLPDVKIVKMKCPDGGDNADSSNTALNMPVIPMNTIAEAVIEMINRGQIQITINGFSISNGLATTQINNKAATGEEVPRTIIVTTRSQYGLPEDAIVYCNFNQLYKIDPSTLQMWANILKRVPNSVLWLLRFPAVGEPNIQQYAQNMGLPQNRIIFSPVAPKEEHVRRGQLADVCLDTPLCNGHTTGMDVLWAGTPMVTMPGETLASRVAASQLTCLGCLELIAKNRQEYEDIAVKLGTDLEYLKKVRGKVWKQRISSPLFNTKQYTMELERLYLQMWEHYAAGNKPDHMIKPVEVTESA
- binding [2]: binds
- binding [1]: binds
